The other results are listed elsewhere or left out. Further columns of the screen follow, without active or inactive calls. Compounds called inactive in the main read-out are mostly missing here. The note in brackets gives the kind of curve behind each potency; many fits are weak.
Assay: qHTS Assay for Identifying the Cell-Membrane Permeable IMPase Inhibitors
Conditions: CHO-M1 cells, IP1 accumulation, HTRF TR-FRET ratio; measured here: donor channel 620 nm AC50
For `CCOC(=O)c1sc2ncn(/N=C/c3ccccn3)c(=O)c2c1C`, the AC50 was 63.1 nM [rising, full curve, poor fit]. In the case of `Cc1cccc(C2Nc3ccccc3C(=O)N2CCc2ccccc2)n1` (stereo not drawn), the AC50 is reported as 5010 nM [rising, single point]. With `CCCCNC(=S)NNC(=O)c1csc(CC)c1` the AC50 was 1000 nM [falling, full curve]. For `COc1ccc(NC(=O)C(=O)N/N=C/c2cccnc2)c(OC)c1`, the AC50 was 1580 nM [falling, partial curve, poor fit]. For `O=c1c2ccccc2nc(SCc2ccccc2F)n1C1CCCC1`, the AC50 was 178 nM [rising, full curve, poor fit]. For `O=C(CSc1nnc(-c2cnccn2)n1Cc1ccco1)Nc1ccc(Br)cc1`, the AC50 was 35500 nM [falling, single point]. For `CCOc1ccc(N=C(NC#N)SCC)cc1`, the AC50 was 200 nM [falling, full curve]. In the case of `CCOC(=O)CCCNS(=O)(=O)c1c(C)ccc2nsnc12`, the AC50 is reported as 5010 nM [falling, single point]. With `COC(=O)c1ccccc1NC(=O)Cc1ccccc1OC` the AC50 was 200 nM [rising, single point]. For `Cc1ccc(C(C)NC(=O)c2ccco2)cc1` (stereo not drawn), the AC50 was 126 nM [falling, single point]. In the case of `CCn1c(C)c(C(C)=O)c(N2CCN(C(=O)c3ccco3)CC2)nc1=S`, the AC50 is reported as 5620 nM [falling, full curve, poor fit]. In the case of `CCOc1ccccc1NC(=O)c1ccc(S(=O)(=O)N2CCOCC2)cc1`, the AC50 is reported as 794 nM [rising, full curve]. For `CCN(CC)C(=O)/C(=C\c1ccc(Br)cc1)NC(=O)c1ccccc1OC`, the AC50 was 10000 nM [falling, partial curve]. In the case of `Cc1c(C(=O)Nc2ccncc2)sc2nc(-c3ccc(F)cc3)cn12`, the AC50 is reported as 31600 nM [rising, single point]. For `CCC(=O)Nc1ccc(NC(=O)c2cccc(OC)c2)nc1`, the AC50 was 501 nM [falling, full curve]. In the case of `O=C1c2ccccc2C(=O)N1c1n[nH]c(CCc2ccccc2)n1`, the AC50 is reported as 158 nM [falling, partial curve, poor fit]. For `CN(C)[C@@H]1CCC[C@@H]1OC(=O)C(c1ccccc1)c1ccccc1`, the AC50 was 224 nM [rising, full curve, poor fit]. In the case of `COc1cccc(OCC(O)CO)c1` (stereo not drawn), the AC50 is reported as 31600 nM [falling, single point]. In the case of `COc1cc(SC)ccc1C(=O)NCCCOC(C)C`, the AC50 is reported as 20000 nM [rising, single point]. With `Nc1ccc2oc(-c3ccc4nc[nH]c4c3)nc2c1` the AC50 was 15.8 nM [rising, full curve, poor fit]. With `O=C(Cn1cnc2c(nnn2Cc2ccc(Cl)cc2)c1=O)NC1CCCC1` the AC50 was 316 nM [rising, single point]. For `COC(=O)c1ccccc1NC(=S)N(Cc1ccc2c(c1)OCO2)Cc1cc2cc(C)ccc2[nH]c1=O`, the AC50 was 5620 nM [rising, full curve]. For `CC1CCN(C(=O)C2CCN(CCCc3ccccc3)CC2)CC1`, the AC50 was 3160 nM [rising, single point]. In the case of `CC1CCCN(C(=O)C2c3ccccc3C(=O)N3CCc4ccccc4C23)C1` (stereo not drawn), the AC50 is reported as 20000 nM [rising, partial curve, poor fit]. In the case of `Nn1c(SC/C=C/c2ccccc2)nnc1-c1ccncc1`, the AC50 is reported as 35500 nM [falling, single point]. In the case of `Cc1nn2c(-c3ccco3)nnc2c2ccccc12`, the AC50 is reported as 1410 nM [falling, full curve, poor fit]. With `COc1ccccc1N1CCN(C(=O)COc2ccc(C)cc2Br)CC1` the AC50 was 794 nM [rising, full curve, poor fit]. With `C/C(=N\S(=O)(=O)c1ccc(C)cc1)N1CCN(S(=O)(=O)c2ccccc2)C1` the AC50 was 31600 nM [falling, single point]. For `CCOc1ccc(C(=O)Nc2cccc(-c3nc4cccnc4o3)c2)cc1Cl`, the AC50 was 31600 nM [falling, single point]. With `Cc1ccc(S(=O)(=O)Cc2nc3ccccc3c(=O)[nH]2)cc1` the AC50 was 1580 nM [falling, full curve, poor fit]. With `CCOc1ccc(NS(=O)(=O)c2ccc(NC(=O)C3CCCO3)cc2)cc1` (stereo not drawn) the AC50 was 79.4 nM [falling, full curve, poor fit]. In the case of `C=CCNC(=S)NNC(=O)c1cccn(Cc2ccc(Cl)cc2Cl)c1=O`, the AC50 is reported as 39.8 nM [falling, full curve, poor fit]. With `Cc1ccc(Cl)cc1NC(=O)COC(=O)C12CC3CC(CC(C3)C1)C2` the AC50 was 31600 nM [rising, single point]. With `Cc1cccc(NC(=O)CSc2nc(-c3ccccc3)c(C#N)c(=O)[nH]2)c1C` the AC50 was 25100 nM [rising, single point]. In the case of `CCCCc1c(C)nc(N)[nH]c1=O`, the AC50 is reported as 10 nM [rising, full curve, poor fit]. For `O=C(O)CC(c1ccccc1)n1cccc1` (stereo not drawn), the AC50 was 10 nM [rising, full curve, poor fit]. With `O=C(NCCCNc1ccc(C(F)(F)F)cc1[N+](=O)[O-])c1ccc(Cl)cc1` the AC50 was 5010 nM [rising, full curve]. In the case of `COc1ccccc1N1CCN(C(=O)c2cc(-c3ccc4c(c3)OCO4)on2)CC1`, the AC50 is reported as 20 nM [falling, full curve, poor fit]. With `Cn1nnc(NC(=O)CSc2ncn[nH]2)n1` the AC50 was 126 nM [rising, full curve]. For `COc1cccc(CNCCNC(=O)c2nonc2N)c1`, the AC50 was 158 nM [falling, single point]. With `O=S(=O)(c1ccc(-c2csc(-c3cccnc3)n2)cc1)N1CCCCC1` the AC50 was 15800 nM [falling, single point]. In the case of `CCN(CC)c1ccc(NC(=O)c2nc3nc(C)cc(C(F)F)n3n2)cc1`, the AC50 is reported as 126 nM [falling, full curve, poor fit]. For `CC(C)(C=O)C1=CC(=O)c2ccccc2C1=O`, the AC50 was 22400 nM [falling, single point]. For `O=C(O)CCCCCNCc1ccncc1`, the AC50 was 15.8 nM [rising, full curve, poor fit]. For `COC(=O)c1cc(COc2ccc3oc(C)c(C(=O)OC)c3c2)c(C)o1`, the AC50 was 10000 nM [falling, partial curve, poor fit]. With `O=C(c1cnccn1)N(c1ccccc1)C1(C(=O)NC2CCCCC2)CCCCC1` the AC50 was 5010 nM [rising, partial curve, poor fit]. In the case of `O=C(O)C1CC=CCC1C(=O)N1CCN(c2nc(-c3ccccc3Cl)c3cc(Br)ccc3n2)CC1` (stereo not drawn), the AC50 is reported as 15800 nM [rising, single point]. In the case of `OCCNc1ncnc2ccc(Br)cc12`, the AC50 is reported as 79.4 nM [falling, full curve, poor fit]. For `CCOC(=O)c1c(-c2cccs2)csc1NC(=O)CCCC(=O)O`, the AC50 was 20000 nM [rising, single point]. With `COC(=O)CSc1cc(C)nc2ccc(OC)cc12` the AC50 was 10 nM [rising, full curve, poor fit]. With `O=C(CCn1c(=O)[nH]c2ccccc2c1=O)N1CCN(c2ccc(Cl)cc2)CC1` the AC50 was 6310 nM [falling, single point]. For `CCCNC(=O)N1CCC(C(=O)c2cccc(F)c2)CC1`, the AC50 was 10000 nM [rising, partial curve]. In the case of `COc1ccc2c(CC(=O)NC3CCCc4ccccc43)coc2c1` (stereo not drawn), the AC50 is reported as 112 nM [falling, full curve]. With `Cc1ccccc1-c1nnc(SCc2ccccc2)o1` the AC50 was 5010 nM [rising, single point]. In the case of `CCOC(=O)c1ccccc1NC(=O)c1cncc(Br)c1`, the AC50 is reported as 5620 nM [rising, single point]. In the case of `COC(=O)c1ccccc1NC(=O)c1cc2sccc2n1C`, the AC50 is reported as 39800 nM [falling, partial curve, poor fit]. In the case of `O=C(c1ccccc1NS(=O)(=O)c1cccs1)N1CCCC1`, the AC50 is reported as 10 nM [rising, full curve, poor fit]. In the case of `O=C(NC(=S)Nc1ccc(S(=O)(=O)N2CCCCC2)cc1)c1ccccc1`, the AC50 is reported as 15800 nM [falling, partial curve, poor fit]. In the case of `Cc1[nH]c(=O)[nH]c(=O)c1/C=N/NC(=O)[C@@H](NC(=O)OC(C)(C)C)C(C)C`, the AC50 is reported as 1000 nM [falling, partial curve]. In the case of `CC(C)N1C(=O)c2ccccc2C1C(=O)NC1CCCCCC1` (stereo not drawn), the AC50 is reported as 5010 nM [falling, partial curve, poor fit]. With `CCc1nnc(NC(=O)c2ccc(S(=O)(=O)N3CCN(Cc4ccccc4)CC3)cc2)s1` the AC50 was 794 nM [rising, full curve, poor fit]. In the case of `CCn1c(=S)ccc2ccc(OC)cc21`, the AC50 is reported as 15800 nM [rising, single point]. For `CCn1cc(C2=NOC(C(=O)Nc3cc(OC)c(Cl)cc3OC)C2)c(C)n1` (stereo not drawn), the AC50 was 1000 nM [falling, partial curve, poor fit]. For `Cc1c(F)cccc1NS(=O)(=O)c1ccccc1C#N`, the AC50 was 3550 nM [falling, full curve]. For `COc1ccc(C2=NOC(C(=O)N3CCCCCC3)C2)cc1OC` (stereo not drawn), the AC50 was 1260 nM [falling, full curve]. In the case of `CC1=C(C(=O)Nc2ccccn2)C(c2ccc(Br)cc2)n2ncnc2N1` (stereo not drawn), the AC50 is reported as 15800 nM [falling, single point]. For `Cc1cc(NC(=O)C2CCN(S(=O)(=O)c3ccc(Br)s3)CC2)ccc1Br`, the AC50 was 22400 nM [rising, single point]. In the case of `COc1ccccc1NC(=O)C1C2CCCCC21` (stereo not drawn), the AC50 is reported as 5.01 nM [rising, full curve, poor fit].

Reference: PubChem BioAssay AID901 (National Center for Advancing Translational Sciences (NCATS), 2007)
